# In patent US20040110681A1, “Method to identify targeting molecules” (priority 2002, published 2004):
# Part of at least one peptide drawing is inferred or uncertain, most often the ends. Positions of bridges follow the written chain, without caps; N, C: chain ends. Residues, ends and D or L forms follow the SMILES beside them.
# Test system: T7-A3 specific binding to brain tissue
# Experiment: In vivo competition of T7-A3 phage brain biodistribution by GST-A3 fusion protein or free peptide
# Set-up: species or system BALB/C mice
# Conditions: 100 ug peptide co-injected with phage, re-administered at 15 minute intervals, brain at 1 hour
smiles,measurement,value
"CC(C)C[C@@H]1NC(=O)[C@H](C)NC(=O)CNC(=O)[C@H](C)NC(=O)[C@@H](N)CSSC[C@@H](C(=O)N[C@@H](Cc2ccc(O)cc2)C(=O)O)NC1=O [free synthetic peptide, CAGALCY] (H-CAGALCY-OH; disulfide 1-6)",reduction of T7-A3 in brain tissue,90%
